{"source": "patent US20180344725A1", "about": "“QUINOLONE CHALCONE COMPOUNDS AND USES THEREOF” (priority 2015, published 2018)", "assay_type_in_all_cases": "cell-based", "key": {"H69AR": {"tested_on": "H69AR", "experiment": "SRB-based cytotoxicity assay", "conditions": "Homo sapiens", "experimental": "(§1) All of the cell lines used were purchased from ATCC and cultured in RPMI-1640 supplemented with 10% fetal bovine serum and antibiotics (100 units penicillin/100 μg/ml streptomycin), unless stated otherwise. 1845B5 and MCF-10A non-cancer breast cell lines were cultured in DME/F12 medium supplemented with 10% fetal bovine serum, antibiotics and growth factors. […] The human small cell lung carcinoma H69 cell line and its multidrug-resistant MRP1-overexpressing isogenic H69AR cell line were purchased from ATCC. […] H69 cells grow as large multi-cell aggregates, making it difficult to accurately count cell numbers. […] The IL-6 dependent bortezomib-resistant ANBL6-BR cell line was further supplemented with 1 ng/ml of IL-6. The MCF10AT1 and MCF10CA1a cell lines are isogenic to the MCF10A cell line, and obtained from Dr. Valerie Weaver at the Center for Bioengineering and Tissue Regeneration, UCSF, CA, USA. MCF10AT1 is a premalignant cell line generated by transforming MCF10A with c-Ha-Ras; and MCF10CA1a was isolated by selecting malignant cells after MCF10AT1 cells were engrafted into mice (Liu & Lin 2004; […] et al. 2009). […] The drug-resistant cells were cultured in the absence of drug for at least one passage before carrying out experiments. All cells were maintained in a humidified incubator at 37° C. […] Cell line authentication was performed using short tandem repeat (STR) profiling. For (anti)proliferation assays, 4,000-5,000 cells/well of the 96-well clustered dish were incubated for 16 hours, as described previously (Hu et al., 2008; Skehan et al., 1990). […] Cell growth (inhibition) was calculated by the following formula: % cells proliferation=[(AT-CT)/(ST-CT)]×100 wherein AT=absorbance of treated cells, CT=absorbance of negative control cells, and ST=absorbance of sham treated cells. […] The combinational index (CI) was calculated as described previously (Chou 2006). […] CI values were determined from four independent experiments."}, "KB-C-1": {"tested_on": "KB-C-1", "experiment": "SRB-based cytotoxicity assay", "conditions": "Homo sapiens, KBC-1", "experimental": "as §1"}, "SW-1271": {"tested_on": "SW-1271", "experiment": "SRB-based cytotoxicity assay", "conditions": "SW1271", "experimental": "as §1"}, "KB-C-2": {"tested_on": "KB-C-2", "experiment": "SRB-based cytotoxicity assay, single and combination with paclitaxel", "conditions": "Homo sapiens, KB-C2", "experimental": "All of the cell lines used were purchased from ATCC and cultured in RPMI-1640 supplemented with 10% fetal bovine serum and antibiotics (100 units penicillin/100 μg/ml streptomycin), unless stated otherwise. 1845B5 and MCF-10A non-cancer breast cell lines were cultured in DME/F12 medium supplemented with 10% fetal bovine serum, antibiotics and growth factors. […] The human small cell lung carcinoma H69 cell line and its multidrug-resistant MRP1-overexpressing isogenic H69AR cell line were purchased from ATCC. […] H69 cells grow as large multi-cell aggregates, making it difficult to accurately count cell numbers. […] The IL-6 dependent bortezomib-resistant ANBL6-BR cell line was further supplemented with 1 ng/ml of IL-6. The MCF10AT1 and MCF10CA1a cell lines are isogenic to the MCF10A cell line, and obtained from Dr. Valerie Weaver at the Center for Bioengineering and Tissue Regeneration, UCSF, CA, USA. […] Cell growth (inhibition) was calculated by the following formula: % cells proliferation=[(AT-CT)/(ST-CT)]×100 wherein AT=absorbance of treated cells, CT=absorbance of negative control cells, and ST=absorbance of sham treated cells. […] The combinational index (CI) was calculated as described previously (Chou 2006). […] CI values were determined from four independent experiments."}}, "data": [{"smiles": "COc1cc2c(c(OC)c1OC)-c1ccc(OC)c(=O)cc1[C@@H](NC(C)=O)CC2", "note": "[Colchicine, reference compound]", "values": [{"measurement": "IC50", "setting": "H69AR", "result": "23 ± 3.63", "unit": "nM"}, {"measurement": "IC50", "setting": "KB-C-1", "result": "5.36 ± 0.54", "unit": "nM"}, {"measurement": "IC50", "setting": "SW-1271", "result": "4.84 ± 0.8", "unit": "nM"}, {"measurement": "IC50", "setting": "KB-C-2", "result": "83.5 ± 7.22", "unit": "nM"}]}]}
